Reference: PubChem BioAssay AID330 (DTP/NCI, 2004)
The list is a part of this screen's results and no random one: it is rich in T/C values a quarter to a half above the control, in often repeated tests (any T/C) and in doses without a T/C. Other doses and runs of a compound stand elsewhere. T/C is the treated group as % of the vehicle group. Some entries give survivors of the animals treated and no T/C: the source holds a T/C of zero for them, seemingly a mark for toxic or unscored doses. Some doses without a T/C left all or most animals alive at the check, yet need not have been tolerated: survival well below the control is almost never listed, so the zero probably covers shortened survival too. Survivors were counted at the toxicity check, usually on the fifth day, unless a day is given; later deaths do not show. Schedule codes are those of the source, taken here to give the interval after Q, in days (D) or hours (H), and the number of doses after X. Some entries hold several experiments; their values stand side by side, smallest first. Some molecules as drawn cover several salts, stereoisomers or complexes of the source; a dose is that of the sample tested. Additions like (4×) count equal records among those shown. For survival time, this PubChem deposit counts one and a half times the control or more as active, and values a quarter to a half above the control carry no call in these data; other NCI protocols may use other cut-offs. Some T/C values are followed by the survivors on the day toxicity was checked, most often the fifth; where none is given, no animal had died by that day.

System: P388 leukemia ip, CD2F1 mice, survival T/C
Test: NCI In Vivo Anticancer Drug Screen. Data for tumor model P388 Leukemia (intraperitoneal) in CD2F1 (CDF1) mice
Settings: T/C endpoint: median survival time, higher T/C = longer survival
[1] = dose: 240.0 mg/kg/injection, schedule: Q01DX005 (ip), vehicle: Klucel (hydroxypropylcellulose) (HPC)
[2] = dose: 200.0 mg/kg/injection, schedule: Q01DX005 (ip), vehicle: saline with Tween-80
[3] = dose: 100.0 mg/kg/injection, schedule: Q01DX009 (ip), vehicle: saline with Tween-80
[4] = dose: 100.0 mg/kg/injection, schedule: Q01DX009 (ip), vehicle: water
[5] = dose: 100.0 mg/kg/injection, schedule: Q01DX005 (ip), vehicle: Klucel (hydroxypropylcellulose) (HPC)
[6] = dose: 200.0 mg/kg/injection, schedule: Q01DX005 (ip), vehicle: Klucel (hydroxypropylcellulose) (HPC)
[7] = dose: 200.0 mg/kg/injection, schedule: Q01DX009 (ip), vehicle: saline
[8] = dose: 100.0 mg/kg/injection, schedule: Q01DX009 (ip), vehicle: saline
[9] = dose: 400.0 mg/kg/injection, schedule: Q01DX001 (ip), vehicle: Klucel (hydroxypropylcellulose) (HPC)

## CCCCCCCCCCCCCCCCONc1ccnc(=O)[nH]1
dose: 150.0 mg/kg/injection, schedule: Q01DX001 (ip), vehicle: Klucel (hydroxypropylcellulose) (HPC)
  survivor count: 6 of 6

## Nc1nc(SCC(=O)O)[nH]c(=O)c1NS(=O)(=O)c1ccccc1
[1]
  T/C: 125 % of control

## CSCCCCN=[N+]=[N-]
dose: 240.0 mg/kg/injection, schedule: Q01DX005 (ip), vehicle: saline
  survivor count: 0 of 6

## CCCCCCCCCCCCCCCCCCSC1=CC(=O)C(Cl)=C(Cl)C1=O
dose: 2.5 mg/kg/injection, schedule: Q01DX009 (ip), vehicle: Klucel (hydroxypropylcellulose) (HPC)
  survivor count: 6 of 6
dose: 5.0 mg/kg/injection, schedule: Q01DX009 (ip), vehicle: Klucel (hydroxypropylcellulose) (HPC)
  survivor count: 6 of 6
dose: 40.0 mg/kg/injection, schedule: Q01DX009 (ip), vehicle: Klucel (hydroxypropylcellulose) (HPC)
  survivor count: 6 of 6

## COc1ccccc1-n1c(=S)n(-c2ccccc2C)c2nc3ccccc3nc1/c2=N\Nc1ccccn1
[2]
  survivor count: 0 of 6

## Cc1cc(NC(=S)SCc2ccc(Cl)cc2)ccc1Br
[3]
  T/C: 135 % of control
dose: 200.0 mg/kg/injection, schedule: Q01DX009 (ip), vehicle: Klucel (hydroxypropylcellulose) (HPC)
  survivor count: 5 of 6
dose: 400.0 mg/kg/injection, schedule: Q01DX009 (ip), vehicle: Klucel (hydroxypropylcellulose) (HPC)
  survivor count: 0 of 6

## O=C1CCC2(c3ccccc3)CCCN=C2N1 (stereo not given)
dose: 400.0 mg/kg/injection, schedule: Q01DX001 (ip), vehicle: saline with Tween-80
  survivor count: 0 of 6

## Nc1n[n+](-c2ccc(Cl)cc2)no1
dose: 12.5 mg/kg/injection, schedule: Q01DX009 (ip), vehicle: water
  T/C: 133 % of control
dose: 25.0 mg/kg/injection, schedule: Q01DX009 (ip), vehicle: water
  T/C: 137 % of control
[4]
  survivor count: 0 of 6 and 2 of 6

## CCCCCCC1NC1Cc1ccccc1 (stereo not given)
[3]
  survivor count: 0 of 6
dose: 200.0 mg/kg/injection, schedule: Q01DX009 (ip), vehicle: saline with Tween-80
  survivor count: 0 of 6
dose: 400.0 mg/kg/injection, schedule: Q01DX009 (ip), vehicle: saline with Tween-80
  survivor count: 0 of 6

## CN1/C(=C/C2=C([O-])C(=C/C3=[N+](C)c4ccccc4C3(C)C)/C2=O)C(C)(C)c2ccccc21
[1]
  survivor count: 5 of 6

## CC1=CC(Cc2ccccc2)N(C)CC1C (stereo not given)
dose: 240.0 mg/kg/injection, schedule: Q01DX005 (ip), vehicle: saline with Tween-80
  survivor count: 0 of 6

## C=C(Cl)C(=NC(C)(C)C)Nc1ccc(Cl)cc1
dose: 50.0 mg/kg/injection, schedule: Q01DX005 (ip), vehicle: Klucel (hydroxypropylcellulose) (HPC)
  survivor count: 1 of 5
[5]
  survivor count: 0 of 5
[6]
  survivor count: 0 of 5 (2×)

## CCOCCC(=NC(C)(C)C)Nc1ccccc1C
[7]
  survivor count: 0 of 6

## CCOC(/C=C/c1ccccc1)OCC
dose: 400.0 mg/kg/injection, schedule: Q04DX003 (ip), vehicle: saline
  T/C: 127 % of control

## O=C1c2ccccc2C(=O)N1CC[P+](C1CCCCC1)(C1CCCCC1)C1CCCCC1
dose: 3.13 mg/kg/injection, schedule: Q01DX009 (ip), vehicle: saline with Tween-80
  T/C: 125 % of control
dose: 12.5 mg/kg/injection, schedule: Q01DX009 (ip), vehicle: saline with Tween-80
  T/C: 125 % of control
dose: 25.0 mg/kg/injection, schedule: Q01DX009 (ip), vehicle: saline with Tween-80
  T/C: 125 % of control
[4]
  survivor count: 1 of 6

## COC(=O)C1=C(C(=O)OC)[C]([Hg][CH3])(C(=O)c2ccccc2)N=N1 (stereo not given)
dose: 50.0 mg/kg/injection, schedule: Q01DX009 (ip), vehicle: saline
  survivor count: 3 of 6
[8]
  survivor count: 0 of 6
[7]
  survivor count: 0 of 6

## C=C1C(=O)[C@@]23CC1C(O)[C@@H](OC(C)=O)[C@@H]2C1(C)C(OC(C)=O)C[C@@H](OC(C)=O)C(C)(C)[C@@H]1C[C@H]3OC(C)=O (stereo not given in full)
[5]
  survivor count: 2 of 6
[6]
  survivor count: 0 of 6

## CC(C)CC1=C(C(=O)c2ccoc2)CC(C)C1 (stereo not given)
dose: 30.0 mg/kg/injection, schedule: Q01DX005 (ip), vehicle: Klucel (hydroxypropylcellulose) (HPC)
  survivor count: 6 of 6

## N=c1sccn1CC(O)c1ccccc1 (stereo not given)
[9]
  survivor count: 0 of 6

## CC(=O)OC1C(O)C(C)OC(OC(=O)C2CCC3C(C2)OC2(CC(OC(=O)/C=C/c4ccccc4)C(C)CO2)C32CO2)C1OC1OC(C)C(O)C(O)C1O (stereo not given)
dose: 4.0 mg/kg/injection, schedule: Q01DX005 (ip), vehicle: saline + alcohol
  T/C: 127 % of control
dose: 8.0 mg/kg/injection, schedule: Q01DX005 (ip), vehicle: saline + alcohol
  T/C: 128 and 134 % of control
dose: 16.0 mg/kg/injection, schedule: Q01DX005 (ip), vehicle: saline + alcohol
  T/C: 140 % of control

## NC1=C(O)C(=O)C(c2c[nH]c3ccc(OCc4ccccc4)cc23)O1 (stereo not given)
dose: 7.5 mg/kg/injection, schedule: Q01DX005 (ip), vehicle: Klucel (hydroxypropylcellulose) (HPC)
  survivor count: 6 of 6
dose: 60.0 mg/kg/injection, schedule: Q01DX005 (ip), vehicle: Klucel (hydroxypropylcellulose) (HPC)
  survivor count: 6 of 6
dose: 120.0 mg/kg/injection, schedule: Q01DX005 (ip), vehicle: Klucel (hydroxypropylcellulose) (HPC)
  survivor count: 6 of 6
[1]
  survivor count: 6 of 6

## C/C=C/C1=C(Cl)C(=O)[C@@H](Cl)[C@@]1(O)C(=O)OC
dose: 2.5 mg/kg/injection, schedule: Q01DX009 (ip), vehicle: saline with Tween-80
  T/C: 149 % of control
dose: 5.0 mg/kg/injection, schedule: Q01DX009 (ip), vehicle: saline with Tween-80
  T/C: 136 % of control
dose: 10.0 mg/kg/injection, schedule: Q01DX009 (ip), vehicle: saline with Tween-80
  T/C: 129 % of control
dose: 20.0 mg/kg/injection, schedule: Q01DX009 (ip), vehicle: saline with Tween-80
  survivor count: 2 of 3

## Cc1c(CCl)cc([N+](=O)[O-])cc1CCl
dose: 50.0 mg/kg/injection, schedule: Q01DX009 (ip), vehicle: Klucel (hydroxypropylcellulose) (HPC)
  T/C: 135 % of control

## O=C(O)c1ccc2c(c1Sc1ccccc1)C(=O)c1ccccc1C2=O
[1]
  survivor count: 3 of 6

## Cc1cccc(Nc2c(C(=O)O)cnc3cc4c(cc23)OCO4)c1
[1]
  survivor count: 6 of 6

## CN1CCN(N=Nc2ccccc2Cl)CC1
[8]
  survivor count: 6 of 6
[7]
  survivor count: 6 of 6

## CN(CCc1ccccn1)c1ccc2c(c1)Cc1ccccc1-2
[6]
  survivor count: 0 of 5

## CC(=O)CC(C)=O.CC(=O)CC(C)=O.c1cc[c]([Sn][c]2ccccc2)cc1
dose: 100.0 mg/kg/injection, schedule: Q01DX001 (ip), vehicle: Klucel (hydroxypropylcellulose) (HPC)
  T/C: 149 % of control [5 of 6 alive]
dose: 200.0 mg/kg/injection, schedule: Q01DX001 (ip), vehicle: Klucel (hydroxypropylcellulose) (HPC)
  T/C: 140 % of control
[9]
  survivor count: 0 of 6

## O=C1CN(C2CC2N2CC(=O)OC(=O)C2)CC(=O)O1 (stereo not given)
dose: 200.0 mg/kg/injection, schedule: Q04DX003 (ip), vehicle: saline with Tween-80
  survivor count: 5 of 6

## C=C1CCCC2CCC[N+](C)(CC(=O)OCC)C12 (stereo not given)
dose: 100.0 mg/kg/injection, schedule: Q01DX005 (ip), vehicle: saline
  survivor count: 0 of 6
dose: 200.0 mg/kg/injection, schedule: Q01DX005 (ip), vehicle: saline
  survivor count: 0 of 6

## O=C1NC(O)c2cccc(F)c2O1 (stereo not given)
[2]
  survivor count: 0 of 5
dose: 400.0 mg/kg/injection, schedule: Q01DX005 (ip), vehicle: saline with Tween-80
  survivor count: 0 of 5
